# Assay results published in PubChem BioAssay AID504648 (National Center for Advancing Translational Sciences (NCATS), 2011).
# The whole screen tested about 390,000 compounds, of which about 610 (0.16%) were called active. The inconclusive results got no clear call from the source; some entries with a clear call stand among them for comparison. Calls follow the shape of the dose curve; as a rule, active = well fitted inhibition curve with a large enough effect; inconclusive = small, poorly fitted or top-dose-only effect, or effect the other way, or another doubt; inactive = no such curve, though single readings can be large or run the other way. Potencies of inconclusive entries are doubtful fits and often do not repeat.
# Test: Nrf2 qHTS screen for inhibitors: counterscreen for cytotoxicity
# Details: A549 ARE-Fluc cells, CellTiter-Fluor viability, 18-24 h; series mostly up to 46 µM
# Procedure, shortened: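 A549 ARE_Fluc cells in 5% FBS OPTI-MEM were exposed to compounds in concentration-response for 18-24 h at 37 deg C. Viability was read by CellTiter-Fluor fluorescence (Ex 405/Em 525) after 30 min, before the luciferase read.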
# Potency is read from the fitted curve at half-maximal effect.
row,SMILES,Potency
1,CCN(CC)S(=O)(=O)c1cc(NC(=O)CCc2c(C)noc2C)ccc1C,"inconclusive: 29.1 µM [falling, single point]"
2,COc1ccc(CCNC(=O)c2cc(C3CC3)nc3c2cnn3C(C)C)cc1OC,inactive
3,CCC1=C(OC(=O)N(CC)CC)N2C(=O)OC(=NCC3CC3)[C@]2(Cc2ccccc2)[C@H]2C1=CC[C@H]1C(=O)N(CC)C(=O)[C@H]12,"inconclusive: 6.51 µM [falling, partial curve, poor fit]"
4,CC(C)N(C(=O)[C@H]1CC(CC(=O)NCCC2=CCCCC2)C(=O)N2CCc3c([nH]c4ccccc34)[C@]12C)C(C)C (some centres undefined),"inconclusive: 29.1 µM [falling, partial curve, poor fit]"
5,COc1ccccc1N(C)S(=O)(=O)c1ccc(C(=O)NNC(=O)c2ccccc2O)cc1,inactive
6,CCCC1=NN(c2ccc([N+](=O)[O-])cc2)C(=O)/C1=C/N(C)C,inactive
7,O=[N+]([O-])c1ccc(N2CCOCC2)nc1,"inconclusive: 14.6 µM [falling, partial curve, poor fit]"
8,O=C(N[C@@H]1C/C=C\C[C@H](CC(=O)N(CCO)Cc2ccccc2)C(=O)N[C@@H](Cc2ccccc2)COC1=O)OCC1c2ccccc2-c2ccccc21,"inconclusive: 13 µM [falling, partial curve]"
9,OCc1cc(Br)ccc1OCc1nc2ccccc2s1,inactive
10,COc1cc(OC)c2c(C)cc(=O)oc2c1C(CCN1CCCCC1)c1ccc(N(C)C)cc1 (centres undefined),"inconclusive: 18.4 µM [falling, single point]"
11,Cc1cc(NC(=O)CSc2nnc(-c3ccccc3C)n2C)no1,"inconclusive: 32.6 µM [activator, partial curve, poor fit]"
12,Cc1ccc(/C=N/N2C(=S)SC(C)(C)C2N(O)C(=O)Nc2ccc([N+](=O)[O-])cc2)cc1 (centres undefined),"inconclusive: 29.1 µM [falling, single point]"
13,O=C(CCCN1C(=O)/C(=C/c2cccc(Br)c2)SC1=S)Nc1cccnc1,"inconclusive: 29.1 µM [falling, single point]"
14,O=C(Nc1cccc(S(=O)(=O)NC2=NCCC2)c1)c1ccccc1,inactive
15,O=C(NCc1ccccc1)C1CCN(c2nc(-c3ccccc3)nc3c2CCC3)CC1,"inconclusive: 20.6 µM [falling, partial curve, poor fit]"
16,Cc1nn(-c2ccccc2)c2nc(C3CC3)cc(C(=O)Nc3ccc(F)cc3)c12,"inconclusive: 32.6 µM [falling, partial curve, poor fit]"
17,CCOC(=O)c1cc2c(=O)n3ccccc3nc2n(Cc2ccco2)c1=NC(=O)c1ccc(Br)cc1,"inconclusive: 23.1 µM [activator, partial curve, poor fit]"
18,Cc1ccc(NC(=O)Cn2c(O)c(N=NC(=O)c3cc4ccccc4cc3O)c3ccccc32)cc1,"inconclusive: 18.4 µM [falling, single point]"
19,COc1ccc(Cl)cc1C(=O)N(Cc1nc(-c2cccc(C)c2)no1)C(C)C,"inconclusive: 29.1 µM [falling, single point]"
20,O=C(Nc1ccc(Br)cc1)c1ccc(F)c(S(=O)(=O)NC2CCCCCC2)c1,"inconclusive: 11.6 µM [falling, partial curve]"
21,O=C(NC1C2CC3CC(C2)CC1C3)c1ccc2c(c1)OCO2 (centres undefined),inactive
22,Cn1cccc1Cc1nnc(SCC(=O)NCc2ccco2)n1-c1ccc(F)cc1,"inconclusive: 6.51 µM [activator, single point]"

row,SMILES,Potency
1,O=C(Nc1c(-c2ccccc2)nc2ccccn12)c1ccccc1,inactive
2,Cc1ccc(CN(C(=O)c2cc3ccccc3oc2=O)C2CCS(=O)(=O)C2)cc1 (centres undefined),inactive
3,O=C(N/N=C/c1ccc[nH]1)c1ccc(COc2cccc3cccnc23)cc1,active: 7.31 µM
4,CC(C)(C)OC(=O)Cc1nnc(-c2cc3ccccc3[nH]2)o1,inactive
5,CC(=O)c1ccc(NC(=O)Nc2ccc3snnc3c2)cc1,inactive
6,O=C(O)c1cccc2c1C(=O)c1cc([N+](=O)[O-])ccc1-2,"inconclusive: 16.4 µM [falling, single point]"
7,O=C1OCCN1C(=O)[C@H]1[C@H](c2ccc(F)cc2)C(c2cccc(Cl)c2)=NN1c1ccccc1,"inconclusive: 29.1 µM [activator, partial curve, poor fit]"
8,O=C1c2ccccc2C(=O)c2c1cccc2N1CCN(Cc2ccccc2)CC1,"inconclusive: 29.1 µM [falling, single point]"
9,O=c1[nH]c2c(=O)[nH]cnc2nc1-c1ccccc1,"inconclusive: 23.1 µM [activator, single point]"
10,O=[N+]([O-])c1ccc(/C=C/C2=NN(c3ccccc3)C(c3ccco3)C2)cc1 (centres undefined),"inconclusive: 18.4 µM [falling, partial curve, poor fit]"
11,Cn1c(=O)c2ccccc2n(CC(=O)N2CCCc3ccccc32)c1=O,inactive
12,COc1ccc(/C(C)=N/NC(=O)CNC(=O)c2cccs2)cc1,"inconclusive: 32.6 µM [activator, single point]"
13,C[C@]12c3[nH]c4ccccc4c3CCN1C(=O)C(CC(=O)NCc1cccc(C(F)(F)F)c1)C[C@@H]2C(=O)N1CCCCC1 (some centres undefined),"inconclusive: 23.1 µM [falling, single point]"
14,CCN(CC)CCCN(C(=O)c1ccc(Br)cc1)c1nc(-c2ccc(OC)cc2)cs1,"inconclusive: 20.6 µM [falling, partial curve, poor fit]"
15,O=C(Nc1ccc(N2CCN(c3ncccc3C(F)(F)F)CC2)nc1)c1cccs1,"inconclusive: 18.4 µM [falling, single point]"
16,CC(/C=C1\SC(=S)N(NC(=O)c2ccncc2)C1=O)=C\c1ccccc1,"inconclusive: 9.2 µM [falling, partial curve, poor fit]"
17,Cc1ccc(C)c(NC(=O)COC(=O)c2cccc3c2C(=O)c2ccccc2C3=O)c1,inactive
18,Cc1ccc(S(=O)(=O)N2CCN(C(=O)COC(=O)CNC(=O)c3ccccc3F)CC2)c(C)c1,"inconclusive: 29.1 µM [activator, partial curve, poor fit]"
19,CCOc1cccc2cc(-c3nnc(NCc4ccc5c(c4)OCO5)s3)c(=O)oc12,inactive
20,COc1ccc(C#Cc2c(-c3ccccc3)n(C)c3ccccc23)cc1,"inconclusive: 18.4 µM [activator, partial curve, poor fit]"
21,C[C@H]1CN([C@@H](C)CO)C(=O)c2cccc(NC(=O)Nc3ccc(C(F)(F)F)cc3)c2O[C@@H]1CN(C)S(=O)(=O)c1ccc(Cl)cc1,"inconclusive: 29.1 µM [falling, partial curve, poor fit]"
22,CCN(CC)CCNC(=S)Nc1ccc2nc(N3CCN(C)CC3)cc(C)c2c1,"inconclusive: 14.6 µM [falling, partial curve]"

# By substructure, those above containing an aryl thioether with sulfur outside any ring
row,SMILES,Potency
11,Cc1cc(NC(=O)CSc2nnc(-c3ccccc3C)n2C)no1,"inconclusive: 32.6 µM [activator, partial curve, poor fit]"
22,Cn1cccc1Cc1nnc(SCC(=O)NCc2ccco2)n1-c1ccc(F)cc1,"inconclusive: 6.51 µM [activator, single point]"

# The listing continues:

row,SMILES,Potency
1,CC(Oc1ccccc1Cl)C(=O)/C=C/N(C)C (centres undefined),"inconclusive: 18.4 µM [falling, single point]"
2,CCN(CC)c1ccc(C(=C2C=CC(=[N+](CC)CC)C=C2)c2ccccc2)cc1,active: 9.2 µM
3,CCOC(=O)N1CCN(Cc2nc3cc(NC(=O)CC)ccc3n2C(C)C)CC1,"inconclusive: 8.2 µM [falling, partial curve, poor fit]"
4,CCOC(=O)c1c(N)nn(C(=O)c2ccccc2)c1-c1ccccc1,"inconclusive: 18.4 µM [falling, partial curve, poor fit]"
5,CCc1ccc(OCC(=O)Nc2cccc3c2CCCC3)cc1,"inconclusive: 8.2 µM [activator, partial curve, poor fit]"
6,CSc1cccc(NC(=S)N(CCCN2CCCC2)Cc2cccn2Cc2ccc(Cl)cc2)c1,"inconclusive: 29.1 µM [falling, single point]"
7,CCN(CC)S(=O)(=O)c1ccc(/C=C/C(=O)Nc2ccc(Br)cc2F)cc1,inactive
8,CN(C)CCN(C(=O)c1ccc2ccccc2c1)c1nc2ccc(Br)cc2s1,"inconclusive: 2.59 µM [activator, single point]"
9,Cc1ccc(C)c(N2CCN(c3nc4ccccc4c(=O)n3-c3ccc(Cl)cc3)CC2)c1,inactive
10,O=C(COc1cccc(Oc2ccccc2)c1)Nc1ccc(SC(F)F)cc1,"inconclusive: 25.9 µM [falling, single point]"
11,Cc1ccc(NS(=O)(=O)c2cccc(C(=O)O)c2)cc1C,inactive
12,CCc1ccc(NS(=O)(=O)c2ccc3[nH]cc(C(=O)N4CCc5ccccc54)c(=O)c3c2)cc1,"inconclusive: 25.9 µM [activator, partial curve, poor fit]"
13,COc1ccc(NC(=O)CN2C(=O)C(C)(C)c3cc(S(=O)(=O)N4CCCCC4)ccc32)cc1Cl,"inconclusive: 32.6 µM [falling, single point]"
14,COc1ccc(C2NC(=O)NC3=C2CCc2ccccc23)cc1 (centres undefined),inactive
15,CCc1ccc(C2=NN(S(C)(=O)=O)C(c3cccs3)C2)cc1 (centres undefined),inactive
16,Cc1cccc(NC(=O)c2nc[nH]c2C(=O)N[C@@H](CC(C)C)C(=O)OC(C)(C)C)c1,"inconclusive: 23.1 µM [falling, single point]"
17,CC(=O)c1cnc(Nc2cccc(Cl)c2Cl)s1,inactive
18,O=C(Cc1csc(NC(=O)Nc2cccc(Cl)c2)n1)NC1CCCC1,"inconclusive: 20.6 µM [falling, partial curve, poor fit]"
19,Cc1ccc(NC(=O)C2CCCN(c3ncnc4onc(C)c34)C2)c(Cl)c1 (centres undefined),inactive
20,Cc1nn(-c2ccccc2)c2c1C1(C(=O)Nc3ccccc31)N1C(=N2)Sc2ccccc21 (centres undefined),"inconclusive: 18.4 µM [falling, single point]"
